# Where “and” joins values, the source holds several entries; their conditions need not be identical. Equal entries are not always repeated. The campaign covered roughly 330,000 compounds. About 7,700 (2.3%) were called active. The shares of active, inactive and inconclusive entries below differ from those in the screen. The call rests on the fitted dose curve; in most records, active means well fitted inhibition curve with a large enough effect; inconclusive means small, poorly fitted or top-dose-only effect, or effect the other way; inactive means flat fitted curve, though single readings scatter. Where the call is inconclusive, the potency comes from a doubtful curve fit.
# Assay: qHTS screen for small molecules that inhibit ELG1-dependent DNA repair in human embryonic kidney (HEK293T) cells expressing luciferase-tagged ELG1; further: nearly all actives have a fitted effect of over 55% in size
# Conditions: HEK293T ELG1-luciferase reporter, luminescence, 16 h, DNA damage induced by 5-fluorouridine; activity change, negative = inhibition: at 46.1 µM (top of the series)
# Method in brief: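 DMSO vehicle served as the neutral condition. Each well held 2,000 cells given 5-fluorouridine plus compound; after 16 hr at 37 °C/5% CO2, ONE-Glo was added and luciferase measured 30 min later.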
# On the % scale 0 is the no-effect control and ±100 the full control effect; potency means the concentration at half of the fitted maximal effect.
SMILES,Potency,"activity change, negative = inhibition"
CCc1cc2c(nc1CC)CCN(CC/C(C)=N/O[C@@H](C)c1cc(-c3c(C)cc(C)cc3C)no1)C2,"inconclusive: 16.4 µM [inhibitor, single point]",
COc1cc2cc(CCOC(=O)c3ccc(C(F)(F)F)cc3)oc(=O)c2cc1OC,"inconclusive: 10.3 µM [inhibitor, partial curve]",
CN=C1S/C(=C\c2ccc(N3CCCC3)c(F)c2)C(=O)N1C,"inconclusive: 4.61 µM [activator, partial curve, poor fit]",
O=C(NCc1cccnc1)C(=O)Nc1nc(-c2ccccc2)cs1,"inconclusive: 3.26 µM [inhibitor, single point]",
Cc1ccc(C(=O)Nc2nnc(NC(=S)Nc3ccccc3)s2)cc1,"inconclusive: 23.1 µM [activator, partial curve]",
COc1ccccc1OCC(=O)Nc1ccc(NC(=O)COc2ccccc2OC)cc1,"inconclusive: 4.61 µM [inhibitor, single point]",
CC(=O)Nc1nc(C)c(-c2csc(Nc3ccccn3)n2)s1,"inconclusive: 2.59 µM [activator, partial curve] and inconclusive: 2.91 µM [activator, full curve]",
CN(C)c1ccc(CN(C(=O)c2cccs2)C2CCS(=O)(=O)C2)cc1 (stereo not drawn),,inactive: 4.61%
C=C(C)CNC(=S)Nc1sc2c(c1C(=O)OCC)CC(C)(C)OC2,,inactive: -8.51%
Cc1cc(C(=O)COC(=O)c2cccc(O)c2)c(C)n1C1CC1,"inconclusive: 5.01 µM [activator, partial curve]",
Cn1c(CNC(=O)c2ccc3c(c2)OCO3)nnc1SCC(=O)Nc1ccc(F)cc1,,inactive: 5.94%
CCN(CC)S(=O)(=O)c1cccc(-c2nnc(SCc3ncc(-c4ccccc4)o3)n2C)c1,active: 20.6 µM,
Cn1c(N)c(C(=O)CCl)c(=O)n(C)c1=O,,inactive: 7.09%
CC(=O)Nc1ccc(S(=O)(=O)NCCNc2ccccc2[N+](=O)[O-])cc1,,inactive: 16.5%
COc1ccc(OC)c(-c2csc(NC(=O)CSCc3c(C)noc3C)n2)c1,"inconclusive: 10.3 µM [inhibitor, partial curve, poor fit]",
CC(C)(C)c1nc(SCC(=O)N2CC(=O)Nc3ccccc32)c2ccccc2n1,,inactive: -0.0107%
COc1cccc(CN2CC(C(=O)NCC3CCOCC3)CCC2=O)c1 (stereo not drawn),,inactive: 4%
COc1ccccc1C(=O)COC(=O)CNS(=O)(=O)c1ccc(NC(C)=O)cc1,"inconclusive: 2.91 µM [inhibitor, partial curve, poor fit]",
O=C(NCCc1ccccc1)NC1CCCCC1,"inconclusive: 8.2 µM [activator, partial curve]",
CC(=O)N/N=C\c1ccccc1OC/C=C/c1ccccc1,"inconclusive: 14.6 µM [activator, partial curve]",
CC(C)c1ccc(NC2CCCN(C(=O)c3ccc(Cn4cnnn4)cc3)C2)cc1 (stereo not drawn),"inconclusive: 23.1 µM [inhibitor, partial curve, poor fit]",
Cc1cccc(C)c1OCc1cc(C(=O)N(Cc2c(C)nn(C)c2C)C2CC2)no1,"inconclusive: 4.61 µM [inhibitor, full curve]",
CCCCNC(=O)/C(C#N)=C/c1ccc(C(=O)OC)cc1,,inactive: 9.79%

SMILES,Potency,"activity change, negative = inhibition"
Fc1ccc(COc2ccccc2CNCc2ccncc2)cc1,,inactive: -0.0709%
O=C(NNC(=O)C(Cl)Cl)c1cnn(-c2ccccc2)c1C(F)(F)F,"inconclusive: 16.4 µM [inhibitor, single point]",
CSc1cccc(NC(=O)c2cc(S(=O)(=O)N3CCc4ccccc43)cn2C)c1,"inconclusive: 14.6 µM [inhibitor, partial curve, poor fit]",
CCC(C)N(C(=O)c1csnn1)C(C(=O)NC1CCCC1)c1ccccc1F (stereo not drawn),"inconclusive: 23.1 µM [inhibitor, partial curve, poor fit]",
COC(C(=O)Nc1ccnn1C1CCN(Cc2nccs2)CC1)c1ccccc1 (stereo not drawn),,inactive: 2.77%
CCOC(=O)C1=C(O)C(=O)N(c2ccc(S(N)(=O)=O)cc2)C1c1ccc(Br)cc1 (stereo not drawn),"inconclusive: 11.6 µM [activator, partial curve, poor fit]",
Cc1ccc2c(=O)cc(C(=O)Nc3ccc(S(=O)(=O)Nc4onc(C)c4C)cc3)oc2c1,"inconclusive: 16.4 µM [activator, partial curve, poor fit]",
N#CC1(NC(=O)Cn2ncc(Cl)c(Cl)c2=O)CCCCC1,active: 5.8 µM,
CC1=NN(c2ccccc2)C(=O)C1c1ccccc1 (stereo not drawn),,inactive: -10.4%
CC(C)Sc1nc(N2CCOCC2)c2c3c(sc2n1)COC(C)(C)C3,"inconclusive: 23.1 µM [inhibitor, partial curve, poor fit]",
CCCCC(=O)Nc1ccc(NC(=O)c2ccco2)cn1,"inconclusive: 12.6 µM [activator, single point]",
CN(C)c1cccc(C(=O)n2cc(C(=O)c3cc(F)ccc3O)cn2)c1,"inconclusive: 9.2 µM [activator, partial curve]",
c1cc2nnnn2nc1N1CCCCC1,"inconclusive: 23.1 µM [activator, partial curve, poor fit]",
O=C(OCc1nnc(-c2ccccc2)o1)c1cccnc1Cl,"inconclusive: 16.4 µM [activator, partial curve, poor fit]",
Cc1cc(C)c2[nH]c(=O)c(CN(Cc3nnnn3C3CCCC3)C3CCCCC3)cc2c1,,inactive: 4.15%
O=C(O)Cn1c(COc2ccc(Cl)cc2)nc2ccccc21,,inactive: -4.09%
C#CCSc1nnc(-c2ccc([N+](=O)[O-])cc2)o1,"inconclusive: 23.1 µM [activator, partial curve]",
Cc1csc(=Nc2cccnc2)n1Cc1ccco1,,inactive: -1.59%
COc1cccc(Nc2ncc(C#N)c(N)n2)c1,"inconclusive: 20.6 µM [activator, partial curve, poor fit]",
CS(=O)(=O)N1CCN(c2ccc(NC(=O)c3ccc([N+](=O)[O-])o3)cc2)CC1,"inconclusive: 29.1 µM [activator, single point]",
Cc1cccc(C(=O)Nc2ccccc2N2CCN(c3ccc(F)cc3)CC2)c1,"inconclusive: 23.1 µM [inhibitor, single point]",
Cc1cccc(OP(=O)(Nc2c(C)n(C)n(-c3ccccc3)c2=O)Oc2cccc(C)c2)c1,"inconclusive: 20.6 µM [inhibitor, partial curve]",
CC1CCC(NC(=O)CNC(=O)c2ccc3ccccc3c2)CC1 (stereo not drawn),"inconclusive: 11.6 µM [activator, partial curve]",

SMILES,Potency,"activity change, negative = inhibition"
O=C(C1CC1)N1N=C(c2ccccc2)CC1(O)C(F)(F)C(F)(F)F (stereo not drawn),"inconclusive: 35.5 µM [activator, single point]",
O=C(/C=C/c1cccs1)c1ccc([N+](=O)[O-])cc1,"inconclusive: 20.6 µM [activator, single point]",
Cn1c(=O)c2c(nc(NCCO)n2CCCc2ccccc2)n(C)c1=O,active: 20.6 µM,
Cc1ccc(S(=O)(=O)NNC(=S)Nc2cccc(C)c2C)cc1,,inactive: -3.4%
Cc1cc(Cl)cc(Cl)c1OCCOCCN(C)C,"inconclusive: 5.8 µM [inhibitor, partial curve, poor fit]",
CC(C)=CCC/C(C)=C/CNC(=O)C[C@H]1C[C@H](C(=O)N2CCOCC2)[C@@]2(C)c3[nH]c4ccc(Cl)cc4c3CCN2C1=O,"inconclusive: 29.1 µM [inhibitor, single point]",
O=S(=O)(/N=C(/Nc1nc2ccccc2s1)c1ccccc1)c1ccc(F)cc1,"inconclusive: 4.11 µM [activator, partial curve]",
NC1=NC(=Nc2ccc(Br)cc2)c2ccccc21,"inconclusive: 29.1 µM [activator, single point]",
O=c1oc(-c2cc3ccccc3o2)nc2sc3c(c12)CCCC3,"inconclusive: 6.51 µM [activator, partial curve]",
COc1ccc(N2Cc3ccccc3C2=NC(=O)c2cccc([N+](=O)[O-])c2)cc1,"inconclusive: 18.4 µM [activator, partial curve]",
O=C(NC(Cc1ccccc1)C(=O)N1CCc2ccccc2C1)c1ccccc1 (stereo not drawn),"inconclusive: 29.1 µM [inhibitor, single point]",
COc1ccccc1CNC(=O)CN(C)CC(=O)Nc1ccccc1Br,"inconclusive: 29.1 µM [inhibitor, single point]",
O=[N+]([O-])c1ccccc1-c1ccc(CN2CCN(c3ccccc3)CC2)o1,,inactive: -8.98%
O=C(Cn1ncc(Cl)c(Cl)c1=O)NCC1CCCCC1,active: 18.4 µM,
O/N=C1\CCCc2ccccc21,"inconclusive: 29.1 µM [inhibitor, single point]",
O=c1c(-c2cnn(-c3ccccc3)c2)coc2cc(O)ccc12,"inconclusive: 2.06 µM [activator, partial curve]",
O=S(=O)(c1ccc(F)cc1)n1ccc(-c2cnc(-c3ccccc3)s2)n1,"inconclusive: 10.3 µM [activator, partial curve]",
CC(=O)N1CCN(C(=O)COC(=O)COc2ccc(C#N)cc2)CC1,,inactive: 9.24%
Cc1ccc(NC(=O)COC(=O)Cc2ccsc2)c(C)c1,,inactive: -5.68%
CCCN(Cc1nc2cc(Cl)ccc2c(=O)[nH]1)C(=O)c1ccc(S(=O)(=O)N2CCCC2)cc1,"inconclusive: 20.6 µM [inhibitor, single point]",
O=C(COc1ccccc1)NNc1c2ccccc2nc2ccccc12,active: 20.6 µM,
Cc1ccc(S(=O)(=O)N2CCN=C2SCc2ccccc2)cc1,"inconclusive: 14.6 µM [inhibitor, single point]",

# Ordered by length of the SMILES (descending): part of the list above
SMILES,Potency,"activity change, negative = inhibition"
CC(C)=CCC/C(C)=C/CNC(=O)C[C@H]1C[C@H](C(=O)N2CCOCC2)[C@@]2(C)c3[nH]c4ccc(Cl)cc4c3CCN2C1=O,"inconclusive: 29.1 µM [inhibitor, single point]",
CCCN(Cc1nc2cc(Cl)ccc2c(=O)[nH]1)C(=O)c1ccc(S(=O)(=O)N2CCCC2)cc1,"inconclusive: 20.6 µM [inhibitor, single point]",
COc1ccc(N2Cc3ccccc3C2=NC(=O)c2cccc([N+](=O)[O-])c2)cc1,"inconclusive: 18.4 µM [activator, partial curve]",
O=S(=O)(c1ccc(F)cc1)n1ccc(-c2cnc(-c3ccccc3)s2)n1,"inconclusive: 10.3 µM [activator, partial curve]",
O=C(C1CC1)N1N=C(c2ccccc2)CC1(O)C(F)(F)C(F)(F)F (stereo not drawn),"inconclusive: 35.5 µM [activator, single point]",
O=C(NC(Cc1ccccc1)C(=O)N1CCc2ccccc2C1)c1ccccc1 (stereo not drawn),"inconclusive: 29.1 µM [inhibitor, single point]",
CC(=O)N1CCN(C(=O)COC(=O)COc2ccc(C#N)cc2)CC1,,inactive: 9.24%
Cn1c(=O)c2c(nc(NCCO)n2CCCc2ccccc2)n(C)c1=O,active: 20.6 µM,
O=c1oc(-c2cc3ccccc3o2)nc2sc3c(c12)CCCC3,"inconclusive: 6.51 µM [activator, partial curve]",
Cc1ccc(S(=O)(=O)N2CCN=C2SCc2ccccc2)cc1,"inconclusive: 14.6 µM [inhibitor, single point]",
NC1=NC(=Nc2ccc(Br)cc2)c2ccccc21,"inconclusive: 29.1 µM [activator, single point]",
Cc1cc(Cl)cc(Cl)c1OCCOCCN(C)C,"inconclusive: 5.8 µM [inhibitor, partial curve, poor fit]",
O/N=C1\CCCc2ccccc21,"inconclusive: 29.1 µM [inhibitor, single point]",

# Source: PubChem BioAssay AID504467 (National Center for Advancing Translational Sciences (NCATS), 2011)
